Test results as given in PMC12828543, “Preclinical drug screen identifies WEE1 inhibitor and vinca alkaloid as a combination treatment concept for Li-Fraumeni syndrome medulloblastoma” (iScience, 2025).

System: LFS fibroblasts
Experiment: Genotoxicity screen, Micronucleus Test (MNT)
Format: cell-based, human
Set-up: key: MNT score = number of micronuclei / number of nuclei
Conditions: Cmax concentration (or concentration causing 20% decrease of viability), 120 h, median
Description: To evaluate genotoxicity of compounds, the Micronucleus Test (MNT)[96]^,[97] method was used. […] Next, the cells were visualized using ImageXpress Micro 4 High-Content Imaging System (Molecular Devices, LLC) and 4 images for each well were analyzed with CellProfiler version 4.1.3 (the pipeline described in the supplementary information).
The MNT score for a specific compound was calculated according to a following formula: MNTscore=(numberofmicronuclei/numberofnuclei)
Resulting MNT scores were compared to negative (DMSO) and positive (mitomycin C) control scores using Welch t-test (R version 4.2.2, packages stat, ggplot2). If scores were statistically different from positive control, then the compound was classified as non-genotoxic. If scores were statistically different from negative control, then the compound was classified as genotoxic.

With `C[C@@H]1COCCN1c1cc(-c2ccnn2C)c2ccnc(-c3ccn[nH]3)c2n1` [BAY-1895344] the “MNT_median (micronucleus test score)” value was 1,10.
